Results deposited as PubChem BioAssay AID1224826 (NIAID, 2016)
Here is one part, drawn at random, of about 17,000 reagents. Of all reagents, about 1,110 (6.6%) are marked active. 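Active means lowered or raised reporter signal; replicate intensities are raw and not normalised per plate.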 Entries without a mark were called inactive. Reagents against one gene are numbered here.

- Aim: 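Genes that change LPS-induced Tnf promoter activity in mouse macrophages when knocked down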 (primary screen)
- Cell system: RAW264.7 G9 macrophages from mouse bearing reporters for p65 (GFP) and the Tnf promoter (mCherry)
- Reagents: siRNA pool against mouse genes, 100 nM
- Timing: 16 h of LPS stimulation, after 2 days of siRNA transfection
- Challenge: bacterial lipopolysaccharide (Salmonella minnesota R595), 10 ng/ml
- Read-out: 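Nuclear mCherry signal of the Tnf promoter reporter measured by imaging after background removal, scaled to each plate median and turned into robust z-scores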
- Reading the numbers: Tnf reporter robust z-score: higher = stronger Tnf promoter reporter signal after LPS; Tnf reporter intensity: higher = stronger Tnf promoter reporter signal
- Rule for the call: 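a well counts as active at a score of -1.3 or below (Tlr4 knock-down control median) or above 3 (raised signal); controls and wells holding fewer than 50 cells are excluded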
- Calls: active = Tnf reporter clearly lowered or raised; inactive = no clear change in Tnf reporter

Target gene	reagent no.	Tnf reporter robust z-score	fewer than 50 cells in well	Tnf reporter intensity, replicate 1	Tnf reporter intensity, replicate 2
Treh (trehalase (brush-border membrane glycoprotein))	1	0.73	enough cells in well	137	124
Rsu1 (Ras suppressor protein 1)	1	-0.06	enough cells in well	325	186
Elfn1	1	-0.79	enough cells in well	90.7	151
Gapvd1 (GTPase activating protein and VPS9 domains 1)	1	2.23	enough cells in well	332	106
Tspan9 (tetraspanin 9)	1	-0.34	enough cells in well	153	174
Tab2 (TGF-beta activated kinase 1/MAP3K7 binding protein 2)	1	-1.29	enough cells in well	163	105
Exosc6 (exosome component 6)	1	-2.01 (active)	enough cells in well	82.7	57.1
Ccdc40 (coiled-coil domain containing 40)	1	0.16	enough cells in well	231	203
Kpna1 (karyopherin subunit alpha 1)	1	-0.56	enough cells in well	191	124
Il17rc (interleukin 17 receptor C)	1	-1.5 (active)	enough cells in well	103	52
Ddhd1 (DDHD domain containing 1)	1		fewer than 50 cells per well; well left out of calls	179	25.7
Ackr1 (atypical chemokine receptor 1)	1	1.03	enough cells in well	297	385
Entpd2 (ectonucleoside triphosphate diphosphohydrolase 2)	1	0.78	enough cells in well	374	131
Defa29 (defensin, alpha, 29)	1	1.15	enough cells in well	214	261
Nelfa (negative elongation factor complex member A, Whsc2)	1	0.22	enough cells in well	297	232
Hnrnpm (heterogeneous nuclear ribonucleoprotein M)	1	0.28	enough cells in well	219	214
Cplx3 (complexin 3)	1	0.08	enough cells in well	175	168
Or8k32 (olfactory receptor family 8 subfamily K member 32)	1	0.91	enough cells in well	224	213
Cldn4 (claudin 4)	1	-0.43	enough cells in well	211	177
Clec14a (C-type lectin domain family 14, member a)	1	1.52	enough cells in well	222	129
Ctsc (cathepsin C)	1	1.15	enough cells in well	356	253
Syvn1 (synovial apoptosis inhibitor 1, synoviolin)	1		fewer than 50 cells per well; well left out of calls	163	42.5
Taf1a	1	-0.36	enough cells in well	173	138
Tnfsf15 (tumor necrosis factor (ligand) superfamily, member 15)	1	1.22	enough cells in well	354	174
Tlr5 (toll-like receptor 5)	1	-0.07	enough cells in well	233	127
Mrpl43 (mitochondrial ribosomal protein L43)	1	0.69	enough cells in well	168	193
Oaz1 (ornithine decarboxylase antizyme 1)	1	-0.13	enough cells in well	258	152

9 entries from above, set out differently:
Target gene | reagent no. | Tnf reporter robust z-score | fewer than 50 cells in well | Tnf reporter intensity, replicate 1 | Tnf reporter intensity, replicate 2
Cplx3 (complexin 3) | 1 | 0.08 | enough cells in well | 175 | 168
Or8k32 (olfactory receptor family 8 subfamily K member 32) | 1 | 0.91 | enough cells in well | 224 | 213
Cldn4 (claudin 4) | 1 | -0.43 | enough cells in well | 211 | 177
Clec14a (C-type lectin domain family 14, member a) | 1 | 1.52 | enough cells in well | 222 | 129
Ctsc (cathepsin C) | 1 | 1.15 | enough cells in well | 356 | 253
Syvn1 (synovial apoptosis inhibitor 1, synoviolin) | 1 | – | fewer than 50 cells per well; well left out of calls | 163 | 42.5
Taf1a | 1 | -0.36 | enough cells in well | 173 | 138
Tnfsf15 (tumor necrosis factor (ligand) superfamily, member 15) | 1 | 1.22 | enough cells in well | 354 | 174
Tlr5 (toll-like receptor 5) | 1 | -0.07 | enough cells in well | 233 | 127

The list goes on.
Target gene	reagent no.	Tnf reporter robust z-score	fewer than 50 cells in well	Tnf reporter intensity, replicate 1	Tnf reporter intensity, replicate 2
Adamts9 (ADAM metallopeptidase with thrombospondin type 1 motif 9)	1	-0.07	enough cells in well	223	135
Ednra (endothelin receptor type A)	1	-0.4	enough cells in well	163	296
Flvcr1 (feline leukemia virus subgroup C cellular receptor 1)	1	-0.61	enough cells in well	151	141
Ninj2 (ninjurin 2)	1	1.85	enough cells in well	334	220
Il12a (interleukin 12a)	1	-0.65	enough cells in well	207	128
Smurf2 (SMAD specific E3 ubiquitin protein ligase 2)	1	0.14	enough cells in well	161	170
Six1 (sine oculis-related homeobox 1)	1	-0.98	enough cells in well	213	122
Or1e35 (olfactory receptor family 1 subfamily E member 35)	1	0.32	enough cells in well	210	127
Pcnx2 (pecanex homolog 2)	1	-0.36	enough cells in well	154	131
Pcnx2 (pecanex homolog 2)	2	-0.84	enough cells in well	137	84.9
Pcif1 (phosphorylated CTD interacting factor 1)	1	-0.43	enough cells in well	187	133
Zfp747 (zinc finger protein 747)	1	1.65	enough cells in well	321	251
Arhgap29 (Rho GTPase activating protein 29)	1	-0.07	enough cells in well	146	152
Mob4 (MOB family member 4, phocein)	1	1.23	enough cells in well	234	132
Bmpr1b (bone morphogenetic protein receptor, type 1B)	1	-0.47	enough cells in well	183	117
Ccn4 (cellular communication network factor 4)	1	0.92	enough cells in well	369	276
Lyset (lysosomal enzyme trafficking factor)	1	-0.56	enough cells in well	183	106
Bpifa5 (BPI fold containing family A, member 5)	1		fewer than 50 cells per well; well left out of calls	179	47.4
Epgn (epithelial mitogen)	1	0.16	enough cells in well	299	119
Loxhd1 (lipoxygenase homology domains 1)	1		fewer than 50 cells per well; well left out of calls	291	57.2
Ccne2 (cyclin E2)	1	1.34	enough cells in well	353	306
Krtap13-1 (keratin associated protein 13-1)	1	-0.35	enough cells in well	122	167
Pxn (paxillin)	1	0.21	enough cells in well	140	138
Stxbp1 (syntaxin binding protein 1)	1	-0.33	enough cells in well	96.6	107
Nyap2	1	-0.04	enough cells in well	206	156
Mgat4e (MGAT4 family, member E)	1		fewer than 50 cells per well; well left out of calls	135	68.7
Rps17 (ribosomal protein S17)	1		fewer than 50 cells per well; well left out of calls	42.8	38.1
Mvb12b (multivesicular body subunit 12B)	1	-0.28	enough cells in well	226	51.4
Dph5 (diphthamide biosynthesis 5)	1	-0.44	enough cells in well	232	53.9
Wsb1 (WD repeat and SOCS box-containing 1)	1	1.08	enough cells in well	175	164
Dgkz (diacylglycerol kinase zeta)	1	0.05	enough cells in well	168	159
